{"source": "patent US9433683B2", "about": "“Reversible pegylated drugs” (Yeda Research and Development Co., Ltd., priority 2003, dated 2016)", "experiment": "Hydrolysis / degradation in normal mouse serum at 37° C.", "note": "The name of at least one read-out is uncertain.", "data": [{"substance": "PEG40-FMS-PYY3-36: 1:1 conjugate of PEG40-SH and MAL-FMS-PYY3-36", "values": [{"measurement": "half-life of hydrolysis in normal mouse serum", "result": "7.0 ± 0.3", "unit": "h"}]}]}
